Results deposited as PubChem BioAssay AID504791 (Drosophila RNAi Screening Center, 2011).
In all, the deposit lists about 23,000 reagents; below is an unselected part of those that have a named target and a result. Over the whole deposit, 199 (0.86%) were called active. 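Plate-scaled ratios behind the calls are not deposited; printed light signals are raw; many rows marked increased or decreased are still called inactive.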

- Aim: 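Genes whose knock-down strengthens or weakens small-RNA reporter silencing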 (primary screen)
- Cell system: Drosophila S2-derived reporter cells
- Reagents: long dsRNA against Drosophila genes, about 150-250 ng dsRNA per well (siRNA assay); about 80-120 ng (miRNA assay)
- Timing: about 5 days (siRNA assay); about 4 days (miRNA assay)
- Treatment: copper sulfate induction of reporters: 25 µM (siRNA assay); 200 mM stated (miRNA assay), 1-2 days before reading
- Read-out: 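Dual luciferase assay: Renilla to firefly signal ratio in each well, scaled to the mean ratio of its plate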
- Reading the numbers: siRNA reporter hit score: higher = 3 marks a strong hit with raised ratio; -3 a strong hit with lowered ratio
- Units: stable assay Renilla, run 1 in luminescence; stable assay firefly, run 1 in luminescence
- Active means: 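First-pass picks had plate-scaled ratios over 1.5 for the siRNA assay, over 1.6 for the miRNA assay, or under 0.6; two distinct dsRNAs had to score alike on retest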

Silencing of CG12782 [SID104183919] resulted in: stable assay Renilla, run 1 = 6144; stable assay firefly, run 1 = 3.76e5; inactive.
CG32833 [SID104184388] showed stable assay Renilla, run 1 = 1.58e5; stable assay firefly, run 1 = 5.53e5; inactive.
Actn (alpha actinin) [SID104197516] scored stable assay Renilla, run 1 = 8372; stable assay firefly, run 1 = 4.70e5; inactive.
After knock-down of Gr93b (Gustatory receptor 93b) [SID104201639] the results were stable assay Renilla, run 1 = 9614; stable assay firefly, run 1 = 6.28e5; inactive.
Against CG8993 [SID104188408] the deposit lists stable assay Renilla, run 1 = 6339; stable assay firefly, run 1 = 4.22e5; inactive.
CG15719 [SID104199477] gave stable assay Renilla, run 1 = 5079; stable assay firefly, run 1 = 4.74e5; inactive.
Knock-down of Gr47a (Gustatory receptor 47a) [SID104186013] gave: stable assay Renilla, run 1 = 6667; stable assay firefly, run 1 = 3.56e5; inactive.
CG9921 [SID104200012] gave stable assay Renilla, run 1 = 4511; stable assay firefly, run 1 = 4.05e5; inactive.
Against Rpt1 (Regulatory particle triple-A ATPase 1) [SID104187334], the values are siRNA reporter hit score -3; stable siRNA reporter change reporter ratio raised past the hit cutoff; miRNA reporter change reporter ratio raised past the hit cutoff; stable assay Renilla, run 1 = 8379; stable assay firefly, run 1 = 2.37e5; active.
Ace (Acetylcholine esterase) [SID104192751] showed stable assay Renilla, run 1 = 5012; stable assay firefly, run 1 = 3.29e5; inactive.
After knock-down of Ace (Acetylcholine esterase) [SID104193892], the record shows stable assay Renilla, run 1 = 9731; stable assay firefly, run 1 = 4.81e5; inactive.
After knock-down of CG15167 [SID104182260], the screen gave stable assay Renilla, run 1 = 6620; stable assay firefly, run 1 = 4.48e5; inactive.

Quoted from the listing for reference:
CG8993 [SID104188408]: stable assay Renilla, run 1 = 6339; stable assay firefly, run 1 = 4.22e5; outcome = inactive
CG15719 [SID104199477]: stable assay Renilla, run 1 = 5079; stable assay firefly, run 1 = 4.74e5; outcome = inactive

Further results follow.
CG14013 [SID104182136] showed stable assay Renilla, run 1 = 8663; stable assay firefly, run 1 = 4.32e5; inactive.
After knock-down of RpL3 (Ribosomal protein L3) [SID104196626] the results were stable assay Renilla, run 1 = 6907; stable assay firefly, run 1 = 3.29e5; inactive.
Knock-down of c(2)M (crossover suppressor on 2 of Manheim) [SID104181714] gave: stable assay Renilla, run 1 = 14204; stable assay firefly, run 1 = 1.70e6; inactive.
With knock-down of Rpt5 (Regulatory particle triple-A ATPase 5) [SID104196634] the results were siRNA reporter hit score -3; stable siRNA reporter change reporter ratio raised past the hit cutoff; miRNA reporter change reporter ratio raised past the hit cutoff; stable assay Renilla, run 1 = 6439; stable assay firefly, run 1 = 1.48e5; active.
Knock-down of Rpt5 (Regulatory particle triple-A ATPase 5) [SID104204813] resulted in: miRNA reporter change reporter ratio raised past the hit cutoff; active.
With knock-down of ALiX (ALG-2 interacting protein X) [SID104194356], the screen gave stable assay Renilla, run 1 = 7910; stable assay firefly, run 1 = 3.35e5; inactive.
Against CG32365 [SID104189832], the entry reads stable assay Renilla, run 1 = 6682; stable assay firefly, run 1 = 3.79e5; inactive.
CG32365 [SID104189833] scored stable siRNA reporter change reporter ratio raised past the hit cutoff; stable assay Renilla, run 1 = 5135; stable assay firefly, run 1 = 1.94e5; inactive.
CG32365 [SID104190769] showed stable assay Renilla, run 1 = 3700; stable assay firefly, run 1 = 2.28e5; inactive.
After knock-down of CG32240 [SID104187885], the screen gave stable assay Renilla, run 1 = 4359; stable assay firefly, run 1 = 4.02e5; inactive.
After knock-down of CG10494 [SID104183864], the record shows siRNA reporter hit score 3; stable assay Renilla, run 1 = 13201; stable assay firefly, run 1 = 7.85e5; inactive.
Against KLHL18 (Kelch like family member 18) [SID104195288] the deposit lists stable assay Renilla, run 1 = 9519; stable assay firefly, run 1 = 5.01e5; inactive.
After knock-down of CG16719 [SID104190014] the results were stable assay Renilla, run 1 = 7794; stable assay firefly, run 1 = 4.12e5; inactive.
After knock-down of CG17221 [SID104180279], the record shows stable assay Renilla, run 1 = 8173; stable assay firefly, run 1 = 5.16e5; inactive.
After knock-down of CG30197 [SID104201872], the screen gave stable assay Renilla, run 1 = 5190; stable assay firefly, run 1 = 4.75e5; inactive.
Silencing of CG11658 [SID104189644] came out at: stable assay Renilla, run 1 = 6143; stable assay firefly, run 1 = 3.42e5; inactive.
